Assay results as given in PubChem BioAssay AID212 (DTP/NCI, 2004).
The list does not hold the whole screen: it gathers tests that were run many times, whatever their T/C, doses with no T/C, and many T/C values between a quarter and a half above the control. Other doses and runs of a compound stand elsewhere. T/C is the treated group as % of the vehicle group. Schedules are NCI's codes, taken here to give the interval after Q, in days (D) or hours (H), and the number of doses after X. Some T/C values are followed by the survivors on the day toxicity was checked, most often the fifth; without a count, all were alive then. Some doses have a count of surviving animals in place of a T/C: the source holds a T/C of zero for them, seemingly a mark for toxic or unscored doses. Counts of survivors are from the toxicity check (mostly the fifth day) where no day follows; animals may have died later. For survival time, this PubChem deposit counts one and a half times the control or more as active, and values a quarter to a half above the control carry no call in these data; other NCI protocols may use other cut-offs. *1 amine or outer side, *2 acyl side, *3 side chain or, on linkers, in order; H or OH if unused. Where a SMILES comes first, the peptide text is derived from it. Bridges are numbered along the chain shown (N, C = ends). Roman numbers before positions name the chains, in order. [ ]: non-standard residue; d: D form. Actinocin(9to1) = Cc1c2oc3c(C)ccc(C(=O)[*:1])c3nc-2c(C(=O)[*:2])c(N)c1=O; aThr = C[C@H](O)[C@H](N)C(=O)O; NMeV = CN[C@H](C(=O)O)C(C)C; Sar = CNCC(=O)O

Tested on: BDF1 mice, colon carcinoma 38 sc, T/C %
Assay: NCI In Vivo Anticancer Drug Screen. Data for tumor model Colon Carcinoma 38 (subcutaneous) in B6D2F1 (BDF1) mice
Summary of the method: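 Ratio of survival or tumor size, compound-treated animals relative to vehicle controls, in tumor-bearing mice.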

[1] = T/C endpoint: median tumor weight (est.), dose: 100.0 mg/kg/injection, schedule: Q07DX002 (ip), vehicle: saline with Tween-80, higher T/C = larger tumour
[2] = T/C endpoint: median tumor weight (est.), dose: 200.0 mg/kg/injection, schedule: Q07DX002 (ip), vehicle: saline with Tween-80, higher T/C = larger tumour
[3] = T/C endpoint: median tumor weight (est.), dose: 400.0 mg/kg/injection, schedule: Q07DX002 (ip), vehicle: saline with Tween-80, higher T/C = larger tumour

Q: With `Cc1c2oc3c(C)ccc(C(=O)N[C@@H]4C(=O)N[C@H](C(C)C)C(=O)N5CCC[C@H]5C(=O)N(C)CC(=O)N(C)[C@@H](C(C)C)C(=O)O[C@H]4C)c3nc-2c(C(=O)N[C@@H]2C(=O)N[C@H](C(C)C)C(=O)N3CCC[C@H]3C(=O)N(C)CC(=O)N(C)[C@@H](C(C)C)C(=O)O[C@H]2C)c(N)c1=O` (I: [aThr][dV]P[Sar][NMeV] / II: [aThr][dV]P[Sar][NMeV]; ester I:1-I:C, II:1-II:C; linker I:N-II:N via Actinocin(9to1)) as the molecule, how does the T/C (T/C endpoint: median tumor weight (est.), dose: 25.0 micrograms/kg/injection, schedule: Q07DX002 (ip), vehicle: saline + alcohol, evaluated on day 20, higher T/C = larger tumour) read?
A: 135 % of control

Q: And the T/C (T/C endpoint: median tumor weight (est.), dose: 50.0 micrograms/kg/injection, schedule: Q07DX002 (ip), vehicle: saline + alcohol, evaluated on day 20, higher T/C = larger tumour)?
A: 135 % of control

Q: And the survivor count (T/C endpoint: median tumor weight (est.), dose: 800.0 micrograms/kg/injection, schedule: Q07DX002 (ip), vehicle: saline + alcohol, higher T/C = larger tumour)?
A: 4 of 10 on day 20

Q: What does the source list for `CC(O)CCC(=O)c1ccoc1` (stereo not given)?
A: T/C (T/C endpoint: median tumor weight (est.), dose: 1.25 mg/kg/injection, schedule: Q07DX002 (ip), vehicle: saline, evaluated on day 20, higher T/C = larger tumour): 145 % of control [9 of 10 alive on day 20]; survivor count (T/C endpoint: median tumor weight (est.), dose: 10.0 mg/kg/injection, schedule: Q03HX006 (ip), vehicle: saline, higher T/C = larger tumour): 1 of 10 on day 20; survivor count (T/C endpoint: median tumor weight (est.), dose: 20.0 mg/kg/injection, schedule: Q03HX006 (ip), vehicle: saline, higher T/C = larger tumour): 0 of 10 on day 20

Q: How did the T/C (T/C endpoint: median tumor weight (est.), dose: 50.0 mg/kg/injection, schedule: Q07DX002 (ip), vehicle: saline with Tween-80, evaluated on day 20, higher T/C = larger tumour) turn out when `FC(F)(F)c1nc2nc(Cl)c(Cl)nc2[nH]1` was run?
A: 125 % of control [9 of 10 alive on day 20]

Q: What about the survivor count [1] of the same molecule?
A: 4 of 10 on day 20

Q: What about the survivor count [2] of the same molecule?
A: 1 of 10 on day 20

Q: And the survivor count [3]?
A: 0 of 10 on day 20

Q: For `O=C1C=C2C(=CCOC2O)O1` (stereo not given), which T/C (T/C endpoint: median tumor weight (est.), dose: 0.5 mg/kg/injection, schedule: Q07DX002 (ip), vehicle: water, evaluated on day 20, higher T/C = larger tumour) is on record?
A: 144 % of control

Q: And the T/C (T/C endpoint: median tumor weight (est.), dose: 3.0 mg/kg/injection, schedule: Q07DX002 (ip), vehicle: saline, evaluated on day 20, higher T/C = larger tumour)?
A: 141 % of control [9 of 10 alive on day 20]

Q: And the survivor count (T/C endpoint: median tumor weight (est.), dose: 6.0 mg/kg/injection, schedule: Q07DX002 (ip), vehicle: saline, higher T/C = larger tumour)?
A: 4 of 10 on day 20

Q: And the survivor count (T/C endpoint: median tumor weight (est.), dose: 8.0 mg/kg/injection, schedule: Q07DX002 (ip), vehicle: water, higher T/C = larger tumour)?
A: 0 of 10 on day 20

Q: And the survivor count (T/C endpoint: median tumor weight (est.), dose: 12.0 mg/kg/injection, schedule: Q07DX002 (ip), vehicle: saline, higher T/C = larger tumour)?
A: 1 of 10 on day 20

Q: What about the survivor count (T/C endpoint: median tumor weight (est.), dose: 16.0 mg/kg/injection, schedule: Q07DX002 (ip), vehicle: water, higher T/C = larger tumour) of the same molecule?
A: 0 of 10 on day 20

Q: Which T/C (T/C endpoint: median tumor weight (est.), dose: 25.0 mg/kg/injection, schedule: Q07DX002 (ip), vehicle: saline with Tween-80, evaluated on day 20, higher T/C = larger tumour) does the source give for `Cc1c2cc(Cl)c3ccccc3c2c[n+]2ccccc12` here?
A: 149 % of control

Q: What about the survivor count [2] of the same molecule?
A: 6 of 10 on day 20

Q: And the survivor count [3]?
A: 0 of 10 on day 20

Q: What does the source list for `CC[C@@]1(O)C[C@H](OC2CC(N(C)C)C(OC3CC(O)C(OC4CCC(=O)C(C)O4)C(C)O3)C(C)O2)c2c(cc3c(c2O)C(=O)c2c(O)cccc2C3=O)[C@H]1C(=O)OC` (stereo not given in full)?
A: T/C (T/C endpoint: median survival time, dose: 13.0 mg/kg/injection, schedule: Q07DX002 (iv), vehicle: water, higher T/C = longer survival): 132 % of control; survivor count (T/C endpoint: median survival time, dose: 32.0 mg/kg/injection, schedule: Q07DX002 (iv), vehicle: water, higher T/C = longer survival): 1 of 10 on day 92; T/C (T/C endpoint: median tumor weight (est.), dose: 0.75 mg/kg/injection, schedule: Q07DX002 (ip), vehicle: water, evaluated on day 20, higher T/C = larger tumour): 128 % of control; survivor count (T/C endpoint: median tumor weight (est.), dose: 12.0 mg/kg/injection, schedule: Q07DX002 (ip), vehicle: water, higher T/C = larger tumour): 6 of 10 on day 20; survivor count (T/C endpoint: median tumor weight (est.), dose: 24.0 mg/kg/injection, schedule: Q07DX002 (ip), vehicle: water, higher T/C = larger tumour): 0 of 10 on day 20; survivor count (T/C endpoint: median tumor weight (est.), dose: 24.0 mg/kg/injection, schedule: Q07DX003 (ip), vehicle: water, higher T/C = larger tumour): 1 of 10 on day 20

Q: Which T/C (T/C endpoint: median tumor weight (est.), dose: 6.25 mg/kg/injection, schedule: Q07DX002 (ip), vehicle: saline with Tween-80, evaluated on day 20, higher T/C = larger tumour) does the source give for `CCCCCCCC(=O)[O][Hg][CH2]C1COC([CH2][Hg][O]C(=O)CCCCCCC)CO1` (stereo not given) here?
A: 126 % of control

Q: What about the survivor count [1] of the same molecule?
A: 0 of 10 on day 20

Q: Which T/C (T/C endpoint: median tumor weight (est.), dose: 50.0 mg/kg/injection, schedule: Q07DX002 (ip), vehicle: Klucel (hydroxypropylcellulose) (HPC), evaluated on day 20, higher T/C = larger tumour) does the source give for `ClCCCCCCCCCCc1ccccc1` here?
A: 129 % of control

Q: For `Nc1nc2c(C(=O)N3CCCC3)nnn2c2ccccc12`, which survivor count [2] is on record?
A: 0 of 10 on day 20

Q: What about the survivor count [3] of the same molecule?
A: 0 of 10 on day 20
